Laboratory results: PubChem BioAssay AID336 (DTP/NCI, 2004)
The list is a part of this screen's results and no random one: it gathers tests that were run many times, whatever their T/C, doses with no T/C, and many T/C values between a quarter and a half above the control. Other doses and runs of a compound stand elsewhere. T/C is the treated group as % of the vehicle group. Some entries give survivors of the animals treated and no T/C: the source holds a T/C of zero for them, seemingly a mark for toxic or unscored doses. Some survivor counts are full or nearly so, which does not show that the dose was tolerated: the source hardly ever lists a survival T/C far under the control, and the zero likely stands for such cases as well. Counts of survivors are from the toxicity check (mostly the fifth day) where no day follows; animals may have died later. Schedule codes are those of the source, read here as Q, the interval in days (D) or hours (H), X, the number of doses. Some doses were run more than once; their values stand side by side, smallest first. For survival time, the PubChem record calls one and a half times the control and up active, and a quarter to a half above the control has no call in these data; cut-offs in other NCI protocols can differ. Additions like (4×) count equal records among those shown. Some T/C values are followed by the survivors on the day toxicity was checked, most often the fifth; where none is given, no animal had died by that day. *1 amine or outer side, *2 acyl side, *3 side chain or, on linkers, in order; H or OH if unused. Where a SMILES comes first, the peptide text is derived from it. Bridges are numbered along the chain shown (N, C = ends). Roman numbers before positions name the chains, in order. [ ]: non-standard residue; d: D form. Actinocin(9to1) = Cc1c2oc3c(C)ccc(C(=O)[*:1])c3nc-2c(C(=O)[*:2])c(N)c1=O; aThr = C[C@H](O)[C@H](N)C(=O)O; NMeV = CN[C@H](C(=O)O)C(C)C; Sar = CNCC(=O)O

System: BDF1 mice, P388/VCR leukemia ip, median survival T/C
Assay: NCI In Vivo Anticancer Drug Screen. Data for tumor model P388 Leukemia resistant to Vincristine; NSC 67574 (intraperitoneal) in B6D2F1 (BDF1) mice
Conditions: T/C endpoint: median survival time, higher T/C = longer survival
Method: The antitumor activity of compounds was measured in mice bearing transplantable tumors. Survival or tumor size were measured and the results are expressed as the measurement made in the treated group (T) divided by the measurement made in the vehicle treated control group (C). The tumor model used in this assay is P388 Leukemia resistant to Vincristine; NSC 67574 (intraperitoneal) in B6D2F1 (BDF1) mice

[1] = dose: 1.25 mg/kg/injection, schedule: Q01DX010 (ip), vehicle: saline
[2] = dose: 5.0 mg/kg/injection, schedule: Q01DX010 (ip), vehicle: saline
[3] = dose: 25.0 mg/kg/injection, schedule: Q01DX010 (ip), vehicle: saline
[4] = dose: 50.0 mg/kg/injection, schedule: Q01DX010 (ip), vehicle: saline
[5] = dose: 10.0 mg/kg/injection, schedule: Q01DX010 (ip), vehicle: saline
[6] = dose: 40.0 mg/kg/injection, schedule: Q01DX010 (ip), vehicle: saline
[7] = dose: 250.0 mg/kg/injection, schedule: Q01DX010 (ip), vehicle: saline
[8] = dose: 125.0 mg/kg/injection, schedule: Q01DX010 (ip), vehicle: saline

N[C@H](C(=O)O)[C@@H]1CC(Cl)=NO1
T/C (dose: 32.4 mg/kg/injection, schedule: Q04DX003 (ip), vehicle: saline): 133 % of control | T/C (dose: 54.0 mg/kg/injection, schedule: Q04DX003 (ip), vehicle: saline): 134 % of control | T/C (dose: 90.0 mg/kg/injection, schedule: Q04DX003 (ip), vehicle: saline): 139 % of control | T/C (dose: 150.0 mg/kg/injection, schedule: Q04DX003 (ip), vehicle: saline): 142 % of control

N#[N+]c1cnc([O-])[nH]c1=O
T/C [1]: 144 % of control | T/C (dose: 2.5 mg/kg/injection, schedule: Q01DX010 (ip), vehicle: saline): 130 and 148 % of control | T/C [2]: 135 % of control | survivor count (dose: 20.0 mg/kg/injection, schedule: Q01DX010 (ip), vehicle: saline): 0 of 6

COc1cc([C@@H]2c3cc4c(cc3[C@@H](OC3OC5CO[C@@H](c6cccs6)OC5C(O)C3O)[C@H]3COC(=O)[C@H]23)OCO4)cc(OC)c1O (stereo partly specified)
T/C (dose: 3.24 mg/kg/injection, schedule: Q04DX003 (ip), vehicle: clinical formulation): 145 % of control | T/C (dose: 9.0 mg/kg/injection, schedule: Q04DX003 (ip), vehicle: clinical formulation): 149 % of control

O=NN(CCCl)C(=O)NCCCl
survivor count [3]: 6 of 6 | survivor count [4]: 6 of 6 | survivor count (dose: 60.0 mg/kg/injection, schedule: Q01DX001 (ip), vehicle: saline): 8 of 8

C[n+]1ccc(NC(=O)c2ccc(NC(=O)c3cccc(C(=O)Nc4ccc(C(=O)Nc5cc[n+](C)cc5)cc4)c3)cc2)cc1
T/C [2]: 125 % of control | T/C [5]: 141 % of control | survivor count [6]: 0 of 7

C=CC(CN1CC1)OC(C)=O (stereo unspecified)
T/C (dose: 4.0 mg/kg/injection, schedule: Q01DX010 (ip), vehicle: saline): 136 % of control | survivor count (dose: 16.0 mg/kg/injection, schedule: Q01DX010 (ip), vehicle: saline): 4 of 6

O=C1CCC(N2C(=O)c3ccccc3C2=O)C(=O)N1 (stereo unspecified)
T/C (dose: 31.3 mg/kg/injection, schedule: Q01DX010 (ip), vehicle: saline): 125 % of control | survivor count [7]: 6 of 6

CCOC(N)=O
survivor count [8]: 6 of 6 | survivor count [7]: 6 of 6 | survivor count (dose: 1000.0 mg/kg/injection, schedule: Q01DX010 (ip), vehicle: saline): 5 of 6 and 6 of 6

Nc1nc(=S)c2[nH]cnc2[nH]1
T/C (dose: 1.25 mg/kg/injection, schedule: Q01DX010 (ip), vehicle: other): 142 % of control | survivor count (dose: 10.0 mg/kg/injection, schedule: Q01DX010 (ip), vehicle: other): 0 of 6 and 6 of 6

Nc1ncnc2c1ccn2C1OC(CO)C(O)C1O (stereo unspecified)
T/C (dose: 0.16 mg/kg/injection, schedule: Q01DX010 (ip), vehicle: saline): 133 and 141 % of control | T/C (dose: 0.32 mg/kg/injection, schedule: Q01DX010 (ip), vehicle: saline): 133 and 141 % of control | survivor count (dose: 0.63 mg/kg/injection, schedule: Q01DX010 (ip), vehicle: saline): 6 of 6 | T/C [1]: 137 and 141 % of control

CCN(CC)CCNc1ccc(CO)c2sc3ccccc3c(=O)c12
T/C (dose: 42.0 mg/kg/injection, schedule: Q01DX009 (ip), vehicle: water): 136 % of control | T/C (dose: 60.0 mg/kg/injection, schedule: Q01DX009 (ip), vehicle: water): 132 % of control [7 of 8 alive] | T/C (dose: 70.0 mg/kg/injection, schedule: Q01DX009 (ip), vehicle: water): 133 % of control | T/C (dose: 100.0 mg/kg/injection, schedule: Q01DX009 (ip), vehicle: water): 139 % of control

CS(=O)(=O)OCCCCOS(C)(=O)=O
survivor count (dose: 12.5 mg/kg/injection, schedule: Q01DX010 (ip), vehicle: saline): 6 of 6 | survivor count [3]: 6 of 6 | survivor count [4]: 6 of 6

CC1CC(C)(O)CC(C(O)CC2CC(=O)NC(=O)C2)C1=O (stereo unspecified)
T/C (dose: 173.0 micrograms/kg/injection, schedule: Q01DX009 (ip), vehicle: saline): 130 % of control | T/C (dose: 288.0 micrograms/kg/injection, schedule: Q01DX009 (ip), vehicle: saline): 134 % of control

Nc1nncs1
T/C (dose: 108.0 mg/kg/injection, schedule: Q04DX003 (ip), vehicle: saline): 129 % of control | survivor count (dose: 300.0 mg/kg/injection, schedule: Q04DX003 (ip), vehicle: saline): 3 of 8

CCn1cnc2c(=S)nc[nH]c21
survivor count [8]: 6 of 6

Cc1c2oc3c(C)ccc(C(=O)N[C@@H]4C(=O)N[C@H](C(C)C)C(=O)N5CCC[C@H]5C(=O)N(C)CC(=O)N(C)[C@@H](C(C)C)C(=O)O[C@H]4C)c3nc-2c(C(=O)N[C@@H]2C(=O)N[C@H](C(C)C)C(=O)N3CCC[C@H]3C(=O)N(C)CC(=O)N(C)[C@@H](C(C)C)C(=O)O[C@H]2C)c(N)c1=O (I: [aThr][dV]P[Sar][NMeV] / II: [aThr][dV]P[Sar][NMeV]; ester I:1-I:C, II:1-II:C; linker I:N-II:N via Actinocin(9to1))
T/C (dose: 50.0 micrograms/kg/injection, schedule: Q01DX010 (ip), vehicle: other): 136 % of control (2×) | T/C (dose: 100.0 micrograms/kg/injection, schedule: Q01DX010 (ip), vehicle: other): 140 and 144 % of control

O=c1[nH]cc(F)c(=O)[nH]1
T/C [2]: 135 and 140 % of control | T/C [5]: 140 % of control | survivor count [6]: 6 of 6

COS(C)(=O)=O
survivor count [4]: 6 of 6 | survivor count (dose: 100.0 mg/kg/injection, schedule: Q01DX010 (ip), vehicle: saline): 5 of 6

COc1cccc2c1C(=O)c1c(O)c3c(c(O)c1C2=O)C[C@@](O)(C(=O)CO)C[C@@H]3OC1CC(N)C(O)C(C)O1 (stereo partly specified)
T/C (dose: 1.44 mg/kg/injection, schedule: Q04DX003 (ip), vehicle: water): 143 % of control | T/C (dose: 6.67 mg/kg/injection, schedule: Q04DX003 (ip), vehicle: water): 145 % of control

CN=C(NC)c1ccc(NC(=O)c2ccc(C(=O)Nc3ccc(C(=NC)NC)cc3)c(Cl)c2)cc1
survivor count [6]: 6 of 6 | survivor count (dose: 60.0 mg/kg/injection, schedule: Q01DX010 (ip), vehicle: saline): 4 of 6

COC(=O)[C@@]12OC[C@]34[C@H]([C@@H](O)[C@@H]1O)[C@@]1(C)CC(=O)C(O)=C(C)[C@@H]1C[C@H]3OC(=O)[C@H](OC(=O)/C=C(\C)C(C)C)[C@@H]24
survivor count (dose: 1080.0 micrograms/kg/injection, schedule: Q01DX004 (ip), vehicle: saline + alcohol): 5 of 8 | survivor count (dose: 1200.0 micrograms/kg/injection, schedule: Q01DX009 (ip), vehicle: saline + alcohol): 8 of 8 | survivor count (dose: 1800.0 micrograms/kg/injection, schedule: Q01DX004 (ip), vehicle: saline + alcohol): 0 of 8 | survivor count (dose: 2000.0 micrograms/kg/injection, schedule: Q01DX009 (ip), vehicle: saline + alcohol): 2 of 8

CC[C@@]1(O)C[C@H](OC2CC(N(C)C)C(OC3CC(O)C(OC4CCC(=O)C(C)O4)C(C)O3)C(C)O2)c2c(cc3c(c2O)C(=O)c2c(O)ccc(O)c2C3=O)[C@H]1C(=O)OC (stereo partly specified)
T/C (dose: 1.73 mg/kg/injection, schedule: Q04DX003 (ip), vehicle: water): 130 % of control

CC/C(=C(/CC)c1ccc(O)cc1)c1ccc(O)cc1
survivor count (dose: 25.0 mg/kg/injection, schedule: Q01DX010 (sc), vehicle: steroid suspending solution): 6 of 6 | survivor count (dose: 50.0 mg/kg/injection, schedule: Q01DX010 (sc), vehicle: steroid suspending solution): 6 of 6 | survivor count (dose: 100.0 mg/kg/injection, schedule: Q01DX010 (sc), vehicle: steroid suspending solution): 6 of 6

COc1ccc(CC2C(=O)NC(C)C(=O)N(C)C3Cc4ccc(cc4)Oc4cc(ccc4O)CC(C(=O)NC(C)C(=O)NC(C)C(=O)N2C)N(C)C3=O)cc1 (stereo unspecified)
survivor count (dose: 12.0 mg/kg/injection, schedule: Q04DX003 (ip), vehicle: other): 3 of 8 | survivor count (dose: 20.0 mg/kg/injection, schedule: Q04DX003 (ip), vehicle: other): 1 of 8

N=[N+]=CC(=O)OCC(N)C(=O)O (stereo unspecified)
T/C (dose: 1.56 mg/kg/injection, schedule: Q01DX010 (ip), vehicle: saline): 129 % of control | T/C (dose: 3.13 mg/kg/injection, schedule: Q01DX010 (ip), vehicle: saline): 133 % of control | T/C (dose: 6.25 mg/kg/injection, schedule: Q01DX010 (ip), vehicle: saline): 141 % of control | survivor count [3]: 6 of 6
